PubChem BioAssay AID1259405, NCATS, 2018
The whole screen tested about 50,000 reagents; shown is an unselected part. Of all reagents, about 4,000 (8%) were called active. 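Mouse siRNA library applied to hamster cells; one well for each siRNA.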

Assay: 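Silenced genes that increase secreted GFP made by CHO cells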 (primary screen)
System: Chinese hamster CHO-K1 ovary cells with stable secreted eGFP expression
Reagent: single siRNA against mouse genes, 0.8 pmol siRNA per well (2 µl of 400 nM stock)
Time to read-out: 3 days
Measurement: 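Per-well intracellular GFP measured by laser scanning cytometry, plus viability from ATP luminescence, each relative to plate median of non-targeting control wells, in %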
Direction: GFP, % of control: higher = more GFP per well, higher productivity; viability (ATP), % of control: higher = more viable cells (more ATP)
Active means: 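Called active when intracellular GFP, relative to negative control, is at or above 120%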

no.	Target gene	PubChem SID	GFP, % of control	viability (ATP), % of control	Call
1	Bcap29 (B cell receptor associated protein 29)	SID363547709	70.6	71.4	inactive
2	Bcap29 (B cell receptor associated protein 29)	SID363558478	108	65.7	inactive
3	Bcap29 (B cell receptor associated protein 29)	SID363560236	92.7	73.6	inactive
4	Nipal3 (NIPA-like domain containing 3)	SID363552226	177	114	active
5	Nipal3 (NIPA-like domain containing 3)	SID363585362	71.2	99.1	inactive
6	Nipal3 (NIPA-like domain containing 3)	SID363585713	98.5	127	inactive
7	Hacl2 (2-hydroxyacyl-CoA lyase 2)	SID363570383	70.3	126	inactive
8	Hacl2 (2-hydroxyacyl-CoA lyase 2)	SID363579183	67.4	69.4	inactive
9	Hacl2 (2-hydroxyacyl-CoA lyase 2)	SID363583055	98.7	127	inactive
10	Vmn1r198 (vomeronasal 1 receptor 198)	SID363556763	85.4	71.4	inactive
11	Vmn1r198 (vomeronasal 1 receptor 198)	SID363563667	85.9	55.5	inactive
12	Vmn1r198 (vomeronasal 1 receptor 198)	SID363587213	124	77	active
13	Serpinf2 (serine (or cysteine) peptidase inhibitor, clade F, member 2)	SID363573146	84	105	inactive
14	Serpinf2 (serine (or cysteine) peptidase inhibitor, clade F, member 2)	SID363577722	112	113	inactive
15	Serpinf2 (serine (or cysteine) peptidase inhibitor, clade F, member 2)	SID363581242	39.2	72	inactive
16	Ermard (ER membrane associated RNA degradation)	SID363540297	72.3	92.7	inactive
17	Ermard (ER membrane associated RNA degradation)	SID363542049	50.6	52	inactive
18	Ermard (ER membrane associated RNA degradation)	SID363543987	115	70.8	inactive
19	Ermard (ER membrane associated RNA degradation)	SID363551723	158	121	active
20	Ermard (ER membrane associated RNA degradation)	SID363559328	82.9	73.5	inactive
21	Ermard (ER membrane associated RNA degradation)	SID363566965	89.6	70.9	inactive
22	Tulp1 (TUB like protein 1)	SID363556346	115	63.3	inactive
23	Tulp1 (TUB like protein 1)	SID363586796	101	93.1	inactive
24	Tulp1 (TUB like protein 1)	SID363588904	107	101	inactive
25	Gfra1	SID363540103	58.7	69.1	inactive
26	Gfra1	SID363561404	86.3	72.1	inactive
27	Gfra1	SID363564440	60.3	48.6	inactive
28	Or2ag2 (olfactory receptor family 2 subfamily AG member 2)	SID363544749	99.5	90.2	inactive
29	Or2ag2 (olfactory receptor family 2 subfamily AG member 2)	SID363551077	72.2	63.5	inactive
30	Or2ag2 (olfactory receptor family 2 subfamily AG member 2)	SID363557626	0.072	366	inactive
31	Best1 (bestrophin 1)	SID363574846	109	84.7	inactive
32	Best1 (bestrophin 1)	SID363575902	82.8	65	inactive
33	Best1 (bestrophin 1)	SID363580478	155	98.8	active
34	Cdc42ep3 (CDC42 effector protein 3)	SID363550250	80.4	93.2	inactive
35	Cdc42ep3 (CDC42 effector protein 3)	SID363564759	93.2	60.6	inactive
36	Cdc42ep3 (CDC42 effector protein 3)	SID363588304	60.4	72.9	inactive
37	Pfn3 (profilin 3)	SID363541461	66.6	72.6	inactive
38	Pfn3 (profilin 3)	SID363556088	52.3	46.6	inactive
39	Pfn3 (profilin 3)	SID363566377	55.3	68.4	inactive
40	Amer2 (APC membrane recruitment 2)	SID363543693	62.2	87	inactive
41	Amer2 (APC membrane recruitment 2)	SID363551429	52.4	35	inactive
42	Amer2 (APC membrane recruitment 2)	SID363559034	93.9	75.8	inactive
43	Tbx1 (T-box 1)	SID363540877	54.2	66.7	inactive
44	Tbx1 (T-box 1)	SID363555504	65.5	70.6	inactive
45	Tbx1 (T-box 1)	SID363565793	64.4	73.4	inactive
46	Rac1 (Rac family small GTPase 1)	SID363541663	95.7	69.3	inactive
47	Rac1 (Rac family small GTPase 1)	SID363553255	62.4	96.8	inactive
48	Rac1 (Rac family small GTPase 1)	SID363566579	69	99.5	inactive
49	Klk1b4 (kallikrein 1-related pepidase b4)	SID363547445	84.3	72.7	inactive
50	Klk1b4 (kallikrein 1-related pepidase b4)	SID363558214	52.8	56.8	inactive
51	Klk1b4 (kallikrein 1-related pepidase b4)	SID363559972	65.3	77.3	inactive
52	Cpt1b (carnitine palmitoyltransferase 1b, muscle)	SID363570505	105	71.5	inactive
53	Cpt1b (carnitine palmitoyltransferase 1b, muscle)	SID363579305	97.1	134	inactive
54	Cpt1b (carnitine palmitoyltransferase 1b, muscle)	SID363583177	87	91.4	inactive

Taken from above.
Under “GFP, % of control”, Hacl2 (2-hydroxyacyl-CoA lyase 2) [SID363570383] has 70.3
Gfra1 [SID363540103], viability (ATP), % of control: 69.1
Vmn1r198 (vomeronasal 1 receptor 198) [SID363587213], Call → active
Tulp1 (TUB like protein 1) [SID363556346], viability (ATP), % of control: 63.3
Result for Cdc42ep3 (CDC42 effector protein 3) [SID363564759] under “Call”: inactive
Value for Klk1b4 (kallikrein 1-related pepidase b4) [SID363559972] under “viability (ATP), % of control”: 77.3

Next reagents follow.
no.	Target gene	PubChem SID	GFP, % of control	viability (ATP), % of control	Call
55	Spock1	SID363572860	57.4	79.5	inactive
56	Spock1	SID363577436	82.3	80.3	inactive
57	Spock1	SID363580956	64.3	66.7	inactive
58	Or12e13 (olfactory receptor family 12 subfamily E member 13)	SID363544397	67.9	59.8	inactive
59	Or12e13 (olfactory receptor family 12 subfamily E member 13)	SID363550725	46	38.2	inactive
60	Or12e13 (olfactory receptor family 12 subfamily E member 13)	SID363557274	82.2	43.9	inactive
61	Tubd1 (tubulin, delta 1)	SID363572435	71.6	102	inactive
62	Tubd1 (tubulin, delta 1)	SID363574195	0.185	17.7	inactive
63	Or10ab4 (olfactory receptor family 10 subfamily AB member 4)	SID363544477	210	80.4	active
64	Or10ab4 (olfactory receptor family 10 subfamily AB member 4)	SID363550805	46.2	54.4	inactive
65	Or10ab4 (olfactory receptor family 10 subfamily AB member 4)	SID363557354	80.8	101	inactive
66	Or10ag56 (olfactory receptor family 10 subfamily AG member 56)	SID363544506	126	91	active
67	Or10ag56 (olfactory receptor family 10 subfamily AG member 56)	SID363550834	34.7	68.8	inactive
68	Or10ag56 (olfactory receptor family 10 subfamily AG member 56)	SID363557383	101	76.4	inactive
69	Galns (galactosamine (N-acetyl)-6-sulfatase)	SID363569754	73.6	60.7	inactive
70	Galns (galactosamine (N-acetyl)-6-sulfatase)	SID363576794	73.8	76.1	inactive
71	Galns (galactosamine (N-acetyl)-6-sulfatase)	SID363578202	97.9	76.1	inactive
72	H2-T3 (histocompatibility 2, T region locus 3)	SID363553796	66.1	63.4	inactive
73	H2-T3 (histocompatibility 2, T region locus 3)	SID363553799	66.7	75.6	inactive
74	H2-T3 (histocompatibility 2, T region locus 3)	SID363561753	68.8	69.5	inactive
75	H2-T3 (histocompatibility 2, T region locus 3)	SID363561756	96.2	77.4	inactive
76	H2-T3 (histocompatibility 2, T region locus 3)	SID363565491	87	73.3	inactive
77	H2-T3 (histocompatibility 2, T region locus 3)	SID363565494	79.6	67.1	inactive
78	Ankmy1 (ankyrin repeat and MYND domain containing 1)	SID363546659	89.9	104	inactive
79	Ankmy1 (ankyrin repeat and MYND domain containing 1)	SID363548415	25.5	47.3	inactive
80	Ankmy1 (ankyrin repeat and MYND domain containing 1)	SID363560593	76.8	84.6	inactive
81	Ppp1r11 (protein phosphatase 1, regulatory inhibitor subunit 11)	SID363581812	97.1	95.9	inactive
82	Ppp1r11 (protein phosphatase 1, regulatory inhibitor subunit 11)	SID363589306	55.8	66.3	inactive
83	Dera (deoxyribose-phosphate aldolase)	SID363573075	76.5	86.1	inactive
84	Dera (deoxyribose-phosphate aldolase)	SID363577651	102	95.9	inactive
85	Dera (deoxyribose-phosphate aldolase)	SID363581171	112	79.6	inactive
86	Krt74 (keratin 74)	SID363540941	49.5	57	inactive
87	Krt74 (keratin 74)	SID363555568	72.5	77.9	inactive
88	Krt74 (keratin 74)	SID363565857	83.6	46	inactive
89	Ccdc14 (coiled-coil domain containing 14)	SID363539838	68.3	86.2	inactive
90	Ccdc14 (coiled-coil domain containing 14)	SID363561139	91.3	82.1	inactive
91	Ccdc14 (coiled-coil domain containing 14)	SID363564175	99.8	71.9	inactive
92	Lmx1a (LIM homeobox transcription factor 1 alpha)	SID363541056	40.4	59	inactive
93	Lmx1a (LIM homeobox transcription factor 1 alpha)	SID363555683	101	102	inactive
94	Lmx1a (LIM homeobox transcription factor 1 alpha)	SID363565972	91	92.1	inactive
95	Mycn (Mycn proto-oncogene, bHLH transcription factor)	SID363573803	60.1	63.7	inactive
96	Mycn (Mycn proto-oncogene, bHLH transcription factor)	SID363581547	77.9	73.6	inactive
97	Mycn (Mycn proto-oncogene, bHLH transcription factor)	SID363584011	78.4	101	inactive
98	Vps26c (VPS26 endosomal protein sorting factor C)	SID363553545	89.5	56.6	inactive
99	Vps26c (VPS26 endosomal protein sorting factor C)	SID363561502	83.5	69.1	inactive
100	Vps26c (VPS26 endosomal protein sorting factor C)	SID363565240	99.8	60.6	inactive
101	Jmjd8 (jumonji domain containing 8)	SID363543891	82.2	55.9	inactive
102	Jmjd8 (jumonji domain containing 8)	SID363551627	63.1	65.1	inactive
103	Jmjd8 (jumonji domain containing 8)	SID363559232	62.1	75	inactive
104	Acads (acyl-Coenzyme A dehydrogenase, short chain)	SID363574937	89.5	70.6	inactive
105	Acads (acyl-Coenzyme A dehydrogenase, short chain)	SID363580569	67.8	70.5	inactive
106	Acads (acyl-Coenzyme A dehydrogenase, short chain)	SID363582681	94.6	95.2	inactive
107	Coq6 (coenzyme Q6 monooxygenase)	SID363572954	62.8	77.7	inactive
108	Coq6 (coenzyme Q6 monooxygenase)	SID363577530	83.6	49.9	inactive
109	Coq6 (coenzyme Q6 monooxygenase)	SID363581050	76.8	88.5	inactive
